Results from article doi:10.1101/2023.03.09.531943.
Numbering of substitutions follows the chain as printed. Like-named read-outs stand apart in the source and are kept apart here. No constants are given. Whether binding was seen depends on the method and setting. Some binding calls cover weakened binding; strength is not graded here.

Amino acid sequences for entries named in this document (tags omitted). Residues count along the entry.
UniProt Q8VZ50: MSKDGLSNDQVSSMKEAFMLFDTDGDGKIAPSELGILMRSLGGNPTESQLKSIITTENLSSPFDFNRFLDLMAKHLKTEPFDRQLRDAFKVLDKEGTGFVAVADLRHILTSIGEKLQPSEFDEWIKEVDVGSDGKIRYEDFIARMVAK
UniProt P02769, residues 25-607: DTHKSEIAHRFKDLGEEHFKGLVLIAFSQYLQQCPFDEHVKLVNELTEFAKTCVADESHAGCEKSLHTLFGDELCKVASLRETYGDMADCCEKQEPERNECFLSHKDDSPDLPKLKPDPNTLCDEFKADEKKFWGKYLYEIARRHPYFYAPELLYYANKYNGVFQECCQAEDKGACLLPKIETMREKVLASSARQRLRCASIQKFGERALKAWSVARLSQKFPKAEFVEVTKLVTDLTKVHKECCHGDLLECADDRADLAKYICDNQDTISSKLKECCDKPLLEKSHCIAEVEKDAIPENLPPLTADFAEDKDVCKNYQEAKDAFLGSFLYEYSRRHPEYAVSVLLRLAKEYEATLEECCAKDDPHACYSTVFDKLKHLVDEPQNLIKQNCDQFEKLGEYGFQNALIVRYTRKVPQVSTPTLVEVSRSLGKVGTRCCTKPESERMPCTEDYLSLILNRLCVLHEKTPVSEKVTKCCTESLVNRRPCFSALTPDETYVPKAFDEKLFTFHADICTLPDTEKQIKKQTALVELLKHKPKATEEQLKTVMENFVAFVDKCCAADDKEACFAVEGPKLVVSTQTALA

B1: recombinant CML13 (protein, UniProt Q94AZ4 1-148)
chain: MGKDGLSDDQVSSMKEAFMLFDTDGDGKIAPSELGILMRSLGGNPTQAQLKSIIASENLSSPFDFNRFLDLMAKHLKTEPFDRQLRDAFKVLDKEGTGFVAVADLRHILTSIGEKLEPNEFDEWIKEVDVGSDGKIRYEDFIARMVAK
B2: recombinant CML14 (protein, UniProt Q8VZ50 1-148)
chain: B1 chain with G2S, D8N, Q47E, A48S, A55T, S56T, E117Q, N119S
B3: biotinylated CML13 (protein, UniProt Q94AZ4 1-148)
chain: B1 chain
modifications: biotin, covalently conjugated (biotin-NHS ester), sites not stated
B4: biotinylated CML14 (protein, UniProt Q8VZ50 1-148)
chain: B1 chain with G2S, D8N, Q47E, A48S, A55T, S56T, E117Q, N119S
modifications: biotin, covalently conjugated (biotin-NHS ester), sites not stated

How the values were obtained:
[1] = biological target: IQD14-IQ2 synthetic peptide, residues 344-367 (Arabidopsis thaliana); assay: ITC
[2] = biological target: IQD14-IQ2 synthetic peptide, residues 344-367 (Arabidopsis thaliana); assay: ITC; remark: listed apart in the source
BSA [3] = biological target: BSA (UniProt P02769); assay: far-Western, overlay or dot blot
BSA [4] = biological target: BSA (UniProt P02769); assay: far-Western, overlay or dot blot; remark: listed apart in the source

Row | Binder | binding [1] | binding [2] | binding (BSA [3]) | binding (BSA [4])
1 | B1 | binds weakly | binds weakly | – | –
2 | B2 | binds weakly | binds weakly | – | –
3 | B3 | – | – | no binding (tested: 200 nM) | no binding (tested: 200 nM)
4 | B4 | – | – | no binding (tested: 200 nM) | no binding (tested: 200 nM)
